Values from PubChem BioAssay AID720505 (Drosophila RNAi Screening Center, 2013).
In all, the deposit lists about 20,000 reagents; shown is a random part of those that have a named target and a result. In the full data, about 2,100 (10%) are marked active. 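Raw plate signals without normalisation; calls rest on control-based scores that were not deposited; replicate 2 separates called from uncalled poorly.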 A number with no mark means an inactive call. Reagent sequences are not shown. Not given: the amount of reagent, the time to read-out.

Assay: 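Knock-downs that reduce calcium influx once internal stores are emptied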 (primary screen)
System: Drosophila S2R+ cells
Knock-down reagent: long dsRNA against Drosophila genes
Challenge: thapsigargin (2 µM) in calcium-free buffer to empty internal stores, then 2 mM calcium added back
Read-out: 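Stores emptied by 2 µM thapsigargin without calcium, then 2 mM calcium re-added; fluo-4 fluorescence followed by FLIPR in 384-well plates, per-well averaged endpoint, raw; two screen passes, some wells retested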
Direction: calcium signal: higher = more calcium entry after store depletion
Hit rule: 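About 1500 genes called as lowering calcium entry, by varying amounts, judged against per-plate control wells with STIM1 as positive and Rho1 as negative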
Meaning of the calls: active = called as lowering calcium entry; inactive = not called

predicted target | dsRNA | calcium signal, replicate 1 | calcium signal, replicate 2
Actn3 | DRSC14106 | 115 | 108
KFase | DRSC03258 | 110 | 99.5
Sox21a | DRSC10819 | 94.6 | 121
CG3597 | DRSC00617 | 172 | 160
CG14259 | DRSC14754 | 176 | 200
mRpL36 | DRSC10337 | 93.5 | 81.4
Toll-4 | DRSC03458 | 111 | 120
Ppi1 | DRSC15421 | 98.6 | 149
CG7196 (retired record) | DRSC01000 | 119 | 107
CG7196 (retired record) | DRSC03023 | 74.3 (active) | 67.9
NELF-B | DRSC17734 | 133 | 135
Rab10 | DRSC20572 | 89.4 | 95
CG9582 | DRSC03267 | 132 | 127
CG44153 | DRSC01118 | 141 | 84.5
CG44153 | DRSC02228 | 86.5 | 139
CG44153 | DRSC02229 | 92.1 | 108
CG44153 | DRSC02231 | 137 | 140
CG44153 | DRSC02233 | 118 | 129
CG44153 | DRSC02902 | 109 | 97.5
CG44153 | DRSC02903 | 81 | 100
CG30430 | DRSC22260 | 92.7 | 140
ndl | DRSC11374 | 83.9 | 78.5
Had2 | DRSC05971 | 189 | 189
Vinc | DRSC18728 | 89.4 | 132
CG13560 | DRSC04198 | 144 | 200
Trx2 | DRSC03622 | 168 | 188
CG30222 | DRSC04125 | 137 | 82.8
CG30222 | DRSC04262 | 163 | 90.2
Mpcp2 | DRSC11226 | 91.3 | 111
Tsp74F | DRSC10508 | 118 | 125
CG15673 | DRSC04263 | 215 | 108
CG12620 | DRSC02177 | 119 | 98.6
c11.1 | DRSC18749 | 115 | 108
IntS12 | DRSC15818 | 112 | 105

Targets listed so far whose target name begins with N or n (2):
predicted target | dsRNA | calcium signal, replicate 1 | calcium signal, replicate 2
NELF-B | DRSC17734 | 133 | 135
ndl | DRSC11374 | 83.9 | 78.5
